The source of these data is article PMC9409403.

By UniProt entry, the sequences of proteins in these tests, tags left out. Residues count along the entry.
UniProt Q569L8: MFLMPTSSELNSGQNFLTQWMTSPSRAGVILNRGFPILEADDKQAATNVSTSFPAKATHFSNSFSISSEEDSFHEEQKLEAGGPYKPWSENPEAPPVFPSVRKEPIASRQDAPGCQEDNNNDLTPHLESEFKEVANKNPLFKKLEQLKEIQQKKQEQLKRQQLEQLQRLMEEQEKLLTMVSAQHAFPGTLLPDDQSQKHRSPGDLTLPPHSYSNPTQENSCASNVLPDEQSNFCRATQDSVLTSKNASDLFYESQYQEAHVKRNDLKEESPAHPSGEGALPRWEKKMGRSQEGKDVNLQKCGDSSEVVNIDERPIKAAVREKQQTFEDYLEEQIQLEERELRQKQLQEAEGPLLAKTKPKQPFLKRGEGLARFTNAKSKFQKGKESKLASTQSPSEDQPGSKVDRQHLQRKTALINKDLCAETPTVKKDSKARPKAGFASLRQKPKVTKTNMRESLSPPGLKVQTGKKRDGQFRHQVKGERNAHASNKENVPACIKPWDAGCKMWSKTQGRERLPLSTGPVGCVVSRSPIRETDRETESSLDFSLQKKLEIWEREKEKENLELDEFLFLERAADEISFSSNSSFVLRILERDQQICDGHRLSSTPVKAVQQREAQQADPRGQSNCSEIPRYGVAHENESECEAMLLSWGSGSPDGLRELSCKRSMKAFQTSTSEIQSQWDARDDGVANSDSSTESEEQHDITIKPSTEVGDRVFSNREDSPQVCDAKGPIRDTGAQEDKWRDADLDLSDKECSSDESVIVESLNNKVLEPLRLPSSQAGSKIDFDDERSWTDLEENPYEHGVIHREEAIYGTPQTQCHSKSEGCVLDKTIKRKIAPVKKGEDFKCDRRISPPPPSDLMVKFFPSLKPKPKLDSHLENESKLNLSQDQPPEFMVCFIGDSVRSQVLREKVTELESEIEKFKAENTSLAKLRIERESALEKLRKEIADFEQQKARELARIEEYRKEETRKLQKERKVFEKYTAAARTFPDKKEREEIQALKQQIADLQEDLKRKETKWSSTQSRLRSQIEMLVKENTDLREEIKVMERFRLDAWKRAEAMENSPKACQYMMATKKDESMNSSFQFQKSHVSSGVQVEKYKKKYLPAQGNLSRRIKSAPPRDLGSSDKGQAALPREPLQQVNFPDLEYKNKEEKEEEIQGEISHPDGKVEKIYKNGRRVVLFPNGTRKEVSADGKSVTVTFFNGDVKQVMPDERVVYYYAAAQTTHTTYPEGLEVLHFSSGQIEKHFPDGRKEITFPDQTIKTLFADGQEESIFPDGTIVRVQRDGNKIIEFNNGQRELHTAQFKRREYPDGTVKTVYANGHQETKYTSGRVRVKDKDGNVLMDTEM
UniProt Q9D752, residues 13-203: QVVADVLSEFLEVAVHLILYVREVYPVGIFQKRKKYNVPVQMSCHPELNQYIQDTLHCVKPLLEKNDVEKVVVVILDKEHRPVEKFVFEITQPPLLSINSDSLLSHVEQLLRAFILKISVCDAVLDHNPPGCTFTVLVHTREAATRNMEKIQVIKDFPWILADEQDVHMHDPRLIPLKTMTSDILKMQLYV

Results are given in words; binding and its absence hold for the method and conditions named. For some assays here: Binding seen in cells or lysates may run through a third protein. Some binding calls cover weakened binding; strength is not graded here. Tags and fused reporters may be left off the sequences shown.

Test [1] concerns the target T1, HASPIN, full length, GAL4 DNA-binding domain fusion (two-hybrid bait) (mouse) (UniProt Q9Z0R0).
T1 sequence: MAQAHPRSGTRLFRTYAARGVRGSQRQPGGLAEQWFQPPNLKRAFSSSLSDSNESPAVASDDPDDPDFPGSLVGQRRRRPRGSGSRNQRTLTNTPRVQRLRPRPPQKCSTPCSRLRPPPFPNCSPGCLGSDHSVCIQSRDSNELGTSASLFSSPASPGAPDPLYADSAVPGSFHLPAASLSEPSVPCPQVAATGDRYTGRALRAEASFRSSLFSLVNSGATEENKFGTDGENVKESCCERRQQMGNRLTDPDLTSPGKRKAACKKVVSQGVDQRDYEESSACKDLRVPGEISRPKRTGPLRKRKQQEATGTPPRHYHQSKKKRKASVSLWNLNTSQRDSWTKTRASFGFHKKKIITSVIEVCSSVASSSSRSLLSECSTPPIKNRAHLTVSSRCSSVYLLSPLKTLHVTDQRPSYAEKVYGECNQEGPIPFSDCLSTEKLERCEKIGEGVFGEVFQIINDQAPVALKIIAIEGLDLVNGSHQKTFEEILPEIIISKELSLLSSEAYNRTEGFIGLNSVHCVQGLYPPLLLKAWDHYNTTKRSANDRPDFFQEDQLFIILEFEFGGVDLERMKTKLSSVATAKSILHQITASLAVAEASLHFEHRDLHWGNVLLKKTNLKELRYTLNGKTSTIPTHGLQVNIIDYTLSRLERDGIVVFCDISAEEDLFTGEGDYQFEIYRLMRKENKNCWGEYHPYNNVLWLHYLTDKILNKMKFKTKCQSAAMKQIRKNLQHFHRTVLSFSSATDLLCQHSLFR
The test can be described thus: two-hybrid; Matchmaker two-hybrid system 2; GAL4 DNA-binding domain-HASPIN (pAS2-1) as bait in yeast Y190; mouse testis cDNA library in pACT2 as prey; 5 x 10^5 clones screened; positives Trp, Leu, His non-requiring and LacZ positive.

The target in test [2] is T2, C1QBP-FLAG (mouse) (UniProt O35658).
T2 sequence: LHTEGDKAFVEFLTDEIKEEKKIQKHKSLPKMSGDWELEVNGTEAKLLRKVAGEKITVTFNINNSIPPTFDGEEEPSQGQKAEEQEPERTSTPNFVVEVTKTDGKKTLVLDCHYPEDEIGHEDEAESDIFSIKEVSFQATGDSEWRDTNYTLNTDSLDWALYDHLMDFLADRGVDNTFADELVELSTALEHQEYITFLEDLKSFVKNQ
The test can be described thus: co-IP; HEK 293 co-transfected with Egfp-Haspin and a FLAG-tagged partner, 48 h; RIPA lysate; immunoprecipitation with anti-HASPIN serum, anti-FLAG antibody or rabbit serum on Protein A Sepharose; western blot.

Test [3] addresses RFP-CENPJ-FLAG (mouse) (UniProt Q569L8). Described as above.

Consider “Mad2l2/MAD2 mitotic arrest deficient-like 2, two-hybrid clone with the HORMA domain (from UniProt Q9D752 13-203) (domain or fragment)”, for which the binding result in test [1] is reported as “binds”.

In the case of “Kpna6/importin alpha 6, two-hybrid clone (whole) (from UniProt O35345 1-536)”, the binding result in test [1] is listed as “binds”.

B1: EGFP-HASPIN (protein, UniProt Q9Z0R0 1-754)
chain: MAQAHPRSGTRLFRTYAARGVRGSQRQPGGLAEQWFQPPNLKRAFSSSLSDSNESPAVASDDPDDPDFPGSLVGQRRRRPRGSGSRNQRTLTNTPRVQRLRPRPPQKCSTPCSRLRPPPFPNCSPGCLGSDHSVCIQSRDSNELGTSASLFSSPASPGAPDPLYADSAVPGSFHLPAASLSEPSVPCPQVAATGDRYTGRALRAEASFRSSLFSLVNSGATEENKFGTDGENVKESCCERRQQMGNRLTDPDLTSPGKRKAACKKVVSQGVDQRDYEESSACKDLRVPGEISRPKRTGPLRKRKQQEATGTPPRHYHQSKKKRKASVSLWNLNTSQRDSWTKTRASFGFHKKKIITSVIEVCSSVASSSSRSLLSECSTPPIKNRAHLTVSSRCSSVYLLSPLKTLHVTDQRPSYAEKVYGECNQEGPIPFSDCLSTEKLERCEKIGEGVFGEVFQIINDQAPVALKIIAIEGLDLVNGSHQKTFEEILPEIIISKELSLLSSEAYNRTEGFIGLNSVHCVQGLYPPLLLKAWDHYNTTKRSANDRPDFFQEDQLFIILEFEFGGVDLERMKTKLSSVATAKSILHQITASLAVAEASLHFEHRDLHWGNVLLKKTNLKELRYTLNGKTSTIPTHGLQVNIIDYTLSRLERDGIVVFCDISAEEDLFTGEGDYQFEIYRLMRKENKNCWGEYHPYNNVLWLHYLTDKILNKMKFKTKCQSAAMKQIRKNLQHFHRTVLSFSSATDLLCQHSLFR
Turning to B1, the binding result in test [2] and in test [3] was “binds” in each case.

B2: C1qbp/HABP1, two-hybrid clone (whole) (protein, UniProt O35658 1-278)
chain: MLPLLRCVPRSLGAASGLRTAIPAQPLRHLLQPAPRPCLRPFGLLSVRAGSARRSGLLQPPVPCACGCGALHTEGDKAFVEFLTDEIKEEKKIQKHKSLPKMSGDWELEVNGTEAKLLRKVAGEKITVTFNINNSIPPTFDGEEEPSQGQKAEEQEPERTSTPNFVVEVTKTDGKKTLVLDCHYPEDEIGHEDEAESDIFSIKEVSFQATGDSEWRDTNYTLNTDSLDWALYDHLMDFLADRGVDNTFADELVELSTALEHQEYITFLEDLKSFVKNQ
Consider B2, for which the binding entry in test [1] is “binds”.
